Reference: article PMC4957052 (The Journal of Biological Chemistry, 2016)
These are yes or no findings as the source states them, for the method shown. Some binding calls cover weakened binding; strength is not graded here.

Molecular target: T1, mouse β-catenin (GST cleaved) (mouse, UniProt Q02248 1-781)
T1 construct: β-catenin, mouse; Probably the construct of m7 (full length) after TEV cleavage; source: E. coli BL21(DE3), purified (glutathione-agarose, TEV cleavage, Mono Q, S200 gel filtration)
T1 sequence (looked up): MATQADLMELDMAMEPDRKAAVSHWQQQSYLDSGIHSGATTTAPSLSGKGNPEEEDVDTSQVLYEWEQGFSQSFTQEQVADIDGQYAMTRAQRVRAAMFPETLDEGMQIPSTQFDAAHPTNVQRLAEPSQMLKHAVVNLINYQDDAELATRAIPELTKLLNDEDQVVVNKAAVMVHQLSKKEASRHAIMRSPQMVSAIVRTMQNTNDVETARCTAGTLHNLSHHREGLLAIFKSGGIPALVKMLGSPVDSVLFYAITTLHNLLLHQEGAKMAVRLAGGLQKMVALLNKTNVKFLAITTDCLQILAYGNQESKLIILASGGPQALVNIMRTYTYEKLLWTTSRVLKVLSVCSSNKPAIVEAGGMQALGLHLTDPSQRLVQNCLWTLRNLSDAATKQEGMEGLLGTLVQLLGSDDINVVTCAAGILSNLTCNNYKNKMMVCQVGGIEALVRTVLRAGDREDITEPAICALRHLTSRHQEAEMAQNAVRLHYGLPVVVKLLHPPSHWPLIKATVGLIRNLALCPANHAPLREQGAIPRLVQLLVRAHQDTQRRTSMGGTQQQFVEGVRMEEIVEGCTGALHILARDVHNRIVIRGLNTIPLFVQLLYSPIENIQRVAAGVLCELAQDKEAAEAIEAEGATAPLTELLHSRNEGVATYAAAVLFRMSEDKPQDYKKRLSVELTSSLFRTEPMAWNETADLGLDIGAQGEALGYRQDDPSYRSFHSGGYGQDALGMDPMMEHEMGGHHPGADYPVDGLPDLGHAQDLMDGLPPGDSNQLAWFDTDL
Experiment: SEC; purified mouse β-catenin mixed with αT-catenin; complex isolated by SEC; both purified

B1: M. musculus αT-catenin (wild type, full length) (natural protein, UniProt Q65CL1 1-895, looked up)
chain: MSAETPITLNMDTQDLQIQTFTVEKLLEPLIIQVTTLVNCPQNPSNRKKGRSKRARVLLASVEEATWNLLDKGEMIAKEATVLKEELAAALQEVRKESKALKVSAERFTDDPCYLPKREAVVQAARALLAAVTRLLVLADMIDVMCLLQHVSSFQRTFESLKNVSNKSDLQRTYQKLGKELESLDYLAFKRQQDLKSPSQRDEIAGARATLKENSPLLHSICSACLEHSDVASLKASKDTVCEEIQNALDVISNASQGIQNAPAPPEPQAATLGSAFDELENLIVLNPLTVTEEDVRPSLEKRLEAIISGAALLADSSCTRDLHRERIIAECNAIRQALQDLLTEYMSNTGKTERSNTLNTAIVNMSKKTRDLRRQLRKAIIDHISDSFLDTTVPLLVLIEAAKNGRVKEIKDYAAIFHEHTGRLVEVANLACSMSTNEDGIKIVRIAANHLETLCPQIINAALALASRPKSQVVKNTMEMYKRTWEHYIHVLTEAVDDITSIDDFLAVSESHILEDVNKCIIALRDQDADNLDRAAGAIRGRAARVAHIVAGEMDSYEPGAYTEGVMRNVNFLTSTVIPEFVTQVNVALDALSKNSLTALDDNQFVDISKKIYDTIHDIRCSVMMIRTPEELEDVSDLEDDHEVRSHTSIQTEGKTDRAKMTQLPEAEKEKIAEQVADFKKVKSKLDAEIEIWDDTSNDIIVLAKKMCMIMMEMTDFTRGKGPLKHTTDVIYAAKMISESGSRMDVLARQIANQCPDPPCKQDLLAYLEQIKFYSHQLKICSQVKAEIQNLGGELIVSALDSVTSLIQAAKNLMNAVVQTVKMSYIASTKIIRIQSSAGPRHPVVMWRMKAPAKKPLIKREKPEETWAAVRRGSAKKKIHPVQVMSEFRGRQVY
notes: Cloned into pGEX-TEV; cleaved from GST with tobacco etch virus protease; also called αT (testes)-catenin; WT αT-catenin; source: E. coli BL21(DE3), purified (glutathione-agarose, TEV cleavage, Mono Q, S200 gel filtration)
  binding: binds
